Measured values reported in PubChem BioAssay AID1671190 (National Center for Advancing Translational Sciences (NCATS), 2021).
About 6,100 (1.1%) of roughly 580,000 compounds were called active. The shares of active, inactive and inconclusive entries below differ from those in the screen. Calls come from the whole dose curve; as a rule, active = well fitted inhibition curve with a large enough effect; inconclusive = small, poorly fitted or top-dose-only effect, or another doubt; inactive = no such curve, though single readings can be large or run the other way. A potency beside an inconclusive call is a rough fit, not a confirmed value.
Potency is the fitted concentration of half-maximal effect.

The chains behind the UniProt entries cited, without tags or fusion partners. Where a name states a change or a piece, a line headed by the entry shows the natural chain unless it says otherwise.
UniProt P18054: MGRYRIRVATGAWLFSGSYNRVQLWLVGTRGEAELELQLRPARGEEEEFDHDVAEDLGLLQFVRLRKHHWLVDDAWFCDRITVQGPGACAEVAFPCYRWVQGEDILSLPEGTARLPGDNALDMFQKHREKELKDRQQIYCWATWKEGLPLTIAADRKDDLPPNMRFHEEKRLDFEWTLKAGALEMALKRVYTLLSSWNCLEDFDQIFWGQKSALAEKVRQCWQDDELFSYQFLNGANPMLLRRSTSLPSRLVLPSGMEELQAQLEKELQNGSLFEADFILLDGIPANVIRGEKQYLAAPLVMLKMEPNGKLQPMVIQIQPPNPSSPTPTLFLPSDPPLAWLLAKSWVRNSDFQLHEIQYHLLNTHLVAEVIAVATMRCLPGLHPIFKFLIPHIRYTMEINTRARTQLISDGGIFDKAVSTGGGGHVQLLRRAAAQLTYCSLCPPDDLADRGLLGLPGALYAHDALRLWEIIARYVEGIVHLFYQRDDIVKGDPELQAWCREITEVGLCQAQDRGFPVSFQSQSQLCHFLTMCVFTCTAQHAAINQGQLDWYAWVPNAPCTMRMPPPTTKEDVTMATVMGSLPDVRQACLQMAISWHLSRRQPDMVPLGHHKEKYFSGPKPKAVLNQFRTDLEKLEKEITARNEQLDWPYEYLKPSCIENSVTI

Each compound was assayed against Polyunsaturated fatty acid lipoxygenase ALOX12 (Homo sapiens) (UniProt P18054) (assay: Primary qHTS assay for inhibitors of human arachidonate 12S-lipoxygenase (ALOX12): Round 2). Conditions: purified 12hLO, xylenol orange hydroperoxide absorbance; series mostly up to 108 µM.
How it was run: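 Hydroperoxide product was detected by ferrous iron/xylenol orange as the 573 to 405 nm absorbance ratio. Arachidonic acid at 40 uM (final) was turned over for 30 min at room temperature by 150 nM human 12hLO, pH 7.0 Hepes buffer, after 15 min compound preincubation.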
With NC(CCCCCCC(N)C(=O)O)C(=O)O (stereo unspecified) the Potency was inconclusive: 35.5 µM [inhibitor, single point]. With CN(Cc1cccc2cnccc12)C(=O)COc1ccc(Cl)cc1Cl the Potency was “inactive”. In the case of N#Cc1c(NC(=S)NC(=O)Cc2cccs2)sc2c1CCCCC2, the Potency is reported as inconclusive: 79.4 µM [inhibitor, partial curve, poor fit]. O=C(OCC(=O)N1c2ccccc2Sc2ccccc21)c1ccccc1 was tested, and the Potency was inconclusive: 126 µM [inhibitor, single point]. Cc1c(OCC(=O)OC(C)C)ccc2c(-c3ccccc3)cc(=O)oc12 was tested, and the Potency was “inactive”. OCC1(Cc2ccc(F)cc2F)CCCN(c2cnc3ccccc3n2)C1 (stereo unspecified) was tested, and the Potency was inconclusive: 10 µM [inhibitor, partial curve, poor fit]. In the case of Oc1ccccc1-c1nc(Oc2ccccc2)c2ccccc2n1, the Potency is reported as “inactive”. With Cc1cc(C)cc(-n2nnn(C3C/C(=N/NC(N)=S)C4OCC3O4)c2=S)c1 (stereo unspecified) the Potency was inconclusive: 44.7 µM [inhibitor, partial curve, poor fit]. CS(=O)(=O)N(CC(O)CON=C1c2ccccc2-c2ccccc21)c1ccc(F)cc1 (stereo unspecified) was tested, and the Potency was “inactive”. With O=C(Nc1cc(Cl)cc2c1-c1ccc(Cl)cc1C2O)C(Cl)Cl (stereo unspecified) the Potency was inconclusive: 35.5 µM [inhibitor, partial curve, poor fit]. In the case of CCc1nnc(NC(=O)c2cc(=O)c3ccccc3o2)s1, the Potency is reported as inconclusive: 112 µM [inhibitor, single point]. In the case of Cc1ccc(C)c(N2CCN(C(=O)CS(=O)(=O)c3cccc4nsnc34)CC2)c1, the Potency is reported as inconclusive: 56.2 µM [inhibitor, partial curve, poor fit]. CC1(C)Cc2c(sc3[nH]c(=S)n(Cc4ccco4)c(=O)c23)CO1 was tested, and the Potency was inconclusive: 15.8 µM [inhibitor, full curve]. Cc1nn(C(=O)COc2ccccc2)c(C)c1S(=O)(=O)N1CCc2ccccc2C1 was tested, and the Potency was inconclusive: 44.7 µM [inhibitor, partial curve, poor fit]. O=C1CSC(=S)N1/N=C/C=C/c1ccccc1 was tested, and the Potency was inconclusive: 63.1 µM [inhibitor, partial curve, poor fit]. Cc1ccc(/C=C/C(=O)O)cc1S(=O)(=O)N1CCc2ccccc2C1 was tested, and the Potency was inconclusive: 44.7 µM [inhibitor, partial curve, poor fit]. With Cc1ccc(S(=O)(=O)N(CCO)c2cc3c(s2)CCCC3)cc1 the Potency was inconclusive: 100 µM [inhibitor, single point]. In the case of CC(C)c1ccccc1NC(=O)Cn1c(-c2ccccc2Cl)nc2ccccc21, the Potency is reported as “inactive”. In the case of O=C(NCc1cccnc1)c1csc([C@@H]2O[C@H](CO)[C@H](O)[C@H](O)[C@H]2O)n1, the Potency is reported as inconclusive: 12.6 µM [inhibitor, partial curve, poor fit]. In the case of COc1ccc(NC(C)=[N+](C)CCNS(=O)(=O)c2ccc(Cl)cc2)cc1, the Potency is reported as inconclusive: 39.8 µM [inhibitor, partial curve, poor fit]. COCCN(C(=O)COC(=O)/C=C/c1cccc(OC)c1)c1c(N)n(CC(C)C)c(=O)[nH]c1=O was tested, and the Potency was “inactive”. With Cc1ccccc1CN1CCNC(=O)C1CC(=O)NC1CCCCCCC1 (stereo unspecified) the Potency was “inactive”. For Cc1ccc(-c2cnc(CCC(=O)Nc3ccc(OC(F)F)cc3)o2)cc1, the Potency was inconclusive: 35.5 µM [inhibitor, partial curve]. In the case of CCOC(=O)C1(S(=O)(=O)c2ccc(Cl)cc2)CCN(Cc2ccc(Cl)cc2)CC1, the Potency is reported as inconclusive: 56.2 µM [inhibitor, partial curve, poor fit]. In the case of OC[C@@H]1CNC[C@H]1C1CCN(CC2CCCCC2)CC1, the Potency is reported as “inactive”. In the case of Cc1ccccc1NC(=O)c1ccc2c(c1)NC(=O)CS2, the Potency is reported as inconclusive: 35.5 µM [inhibitor, partial curve, poor fit]. In the case of Cc1ccc(CNCc2ccccc2C(F)(F)F)cc1, the Potency is reported as inconclusive: 44.7 µM [inhibitor, partial curve, poor fit]. With C=CCNC(=O)c1ccc2nc(-c3ccccc3)c(-c3ccccc3)nc2c1 the Potency was “inactive”. With O=C(NCCNc1ccnc2cc(Cl)ccc12)c1ccccc1F the Potency was “inactive”. In the case of O=c1[nH]nc(Sc2ccccc2)c(=S)[nH]1, the Potency is reported as inconclusive: 56.2 µM [inhibitor, partial curve, poor fit]. For COc1ccc(N2CC(C(=O)Nc3ccc4c(c3)OCO4)CC2=O)cc1 (stereo unspecified), the Potency was inconclusive: 112 µM [inhibitor, single point]. With CCc1c(CN2CCN(c3ccccc3F)CC2)csc1C the Potency was inconclusive: 28.2 µM [inhibitor, partial curve, poor fit]. CN(Cc1ccc(Br)cc1)c1ccc(S(N)(=O)=O)cn1 was tested, and the Potency was inconclusive: 44.7 µM [inhibitor, partial curve, poor fit]. With CCN=C1NC(c2ccccc2)C(C(=O)OC)=C(C)N1Cc1ccc(C(F)(F)F)cc1 (stereo unspecified) the Potency was inconclusive: 44.7 µM [inhibitor, partial curve, poor fit]. With NC(=S)NN=C1CCCCCCCCCCC1 the Potency was inconclusive: 22.4 µM [inhibitor, partial curve, poor fit]. In the case of Cc1ccc(Cc2c(-c3ccccc3)nc3c(Cl)cc(C(F)(F)F)cn23)cc1, the Potency is reported as inconclusive: 112 µM [inhibitor, single point]. For COc1ccc(C2Cn3nnc(C(=O)N4CCN(C(=O)c5ccccc5C)CC4)c3CO2)cc1 (stereo unspecified), the Potency was “inactive”. For O=C(Cn1c(-c2cccs2)cc2cc(F)ccc21)NCCCN1CCN(c2ccc(F)cc2)CC1, the Potency was inconclusive: 126 µM [inhibitor, single point]. With CCCCn1nc(C(=O)Oc2ccc3c(C)cc(=O)oc3c2)c2ccccc2c1=O the Potency was inconclusive: 50.1 µM [inhibitor, partial curve, poor fit]. For CNC(=O)C(C#N)(Cc1cccc2ccccc12)Cc1cccc2ccccc12, the Potency was inconclusive: 100 µM [inhibitor, partial curve, poor fit]. COc1ccc(NS(=O)(=O)c2cc(NC(=O)CCc3ccccc3)ccc2N2CCOCC2)cc1 was tested, and the Potency was inconclusive: 5.62 µM [inhibitor, full curve, poor fit].
